Data taken from US9700024B2 (priority 2010, dated 2017).
“Also recorded” adds a separate entry of the source. At least one compound was matched to its structure with a doubt left.

Tests used:
[1] = system: pregnancy-induced hypertension syndrome model mice (placenta-specific hsFLT1 expression); assay: Urinary albumin/creatinine (proteinuria) in model mice; format: in vivo, mouse; settings: LV-hsFLT1 model mice
Procedure: Blood samples were allowed to clot and were centrifuged to prepare serum samples. Concentrations of hsF1T1, mVEGF, and mPIGF were measured with ELISA kits, according to the manufacturer's instructions (R&D system). Aspartate aminotransferase (AST) and alanine transaminase (ALT) were measured by Fuji dry-chem 3500V and dri-chem slides (Fuji Film.co). Urine samples were collected at E18.5. Urine albumin and creatinine concentrations were measured by using the Fuji dry-chem 3500V and dri-chem slides (Fuji Film.co, Tokyo Japan).

mPIGF mRNA = assay: Placental mPIGF mRNA by quantitative RT-PCR; format: in vivo, mouse; settings: E18.5; after pravastatin treatment
hsFLT1 mRNA = assay: Placental hsFLT1 mRNA level; format: in vivo, mouse; settings: placenta at E18.5; pravastatin every day from E7.5
mVEGF mRNA = assay: Placental mVEGF mRNA level; format: in vivo, mouse; settings: placenta at E18.5; pravastatin every day from E7.5
[2] = system: human umbilical vein endothelial cells (HUVECs); assay: In vitro expression of PIGF as an effect of statin, HUVEC; format: cell-based; settings: statin 1 μM or 10 μM, 24 hours
Procedure: For HUVEC cells, each of the stock solutions was added upon dilution to 1 μM or 10 μM in a culture medium.
HUVEC and HEK293T cells were plated at 2×10^4 and 1×10^5 cells per well in 6-well plates, respectively, and incubated under 5% CO2 at 37° C. After 24 hours, the medium was replaced with a fresh medium containing or not containing a statin. The media collected after another 24 hours were centrifuged at 1,000×g, and the supernatants were subjected to ELISA.

[3] = system: pregnancy-induced hypertension syndrome model mice (placenta-specific hsFLT1 expression); assay: Kidney histology (HE staining), glomerulosclerosis; format: in vivo, mouse; settings: LV-hsFLT1 model mice, kidney sections on the 18th day of pregnancy
[4] = system: pregnancy-induced hypertension syndrome model mice (placenta-specific hsFLT1 expression); assay: Placental formation (anti-CD31 staining) and IUGR (fetal and placental weight); format: in vivo, mouse; settings: LV-hsFLT1 model mice; E13.5 / E18.5
[5] = system: spontaneous-abortion model mouse; settings: Blood 2009; 113(17): 4101-9; cited from earlier work

For `CC[C@H](C)C(=O)O[C@H]1C[C@H](O)C=C2C=C[C@H](C)[C@H](CC[C@@H](O)C[C@@H](O)CC(=O)O)[C@H]21` [pravastatin, Monosodium(3R,5R)-3,5-dihydroxy-7-{(1S,2S,6S,8S,8aR)-6-hydroxy-2-methyl-8-[(2S)-2-methylbutanoyloxy]-1,2,6,7,8,8a-hexahydronaphthalen-1-yl}heptanoate], the proteinuria [1] was “similarly improved”, the “placental mPIGF mRNA increase” value (mPIGF mRNA) was “approximately five-fold” and the “hsFLT1 mRNA level” value (hsFLT1 mRNA) was “did not affect”. The “mVEGF mRNA level” value (mVEGF mRNA) was “not changed”, the “PIGF production in supernatant” value [2] was “induced PGF production” and the “PIGF production in supernatant” value ([2]; listed as Pravastatin) was “induce PIGF production”. The glomerulosclerosis [3] was “similarly improved; also recorded: recovered”, the “impaired placental formation and IUGR” value [4] was “restored placental formation and ameliorated IUGR” and the miscarriages [5] was “prevented miscarriages”.
